Laboratory results as given in the supplement of paper PMC10849652.
This is one part of the list.

The chains behind the UniProt entries cited, without tags or fusion partners. Where a name states a change or a piece, a line headed by the entry shows the natural chain unless it says otherwise.
UniProt Q70IA6: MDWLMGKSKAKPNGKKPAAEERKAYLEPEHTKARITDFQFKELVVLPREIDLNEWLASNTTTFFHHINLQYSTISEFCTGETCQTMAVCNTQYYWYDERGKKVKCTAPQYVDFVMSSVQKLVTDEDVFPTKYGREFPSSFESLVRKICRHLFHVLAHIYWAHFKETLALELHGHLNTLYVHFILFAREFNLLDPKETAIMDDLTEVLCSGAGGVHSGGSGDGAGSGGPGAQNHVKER
UniProt Q14149: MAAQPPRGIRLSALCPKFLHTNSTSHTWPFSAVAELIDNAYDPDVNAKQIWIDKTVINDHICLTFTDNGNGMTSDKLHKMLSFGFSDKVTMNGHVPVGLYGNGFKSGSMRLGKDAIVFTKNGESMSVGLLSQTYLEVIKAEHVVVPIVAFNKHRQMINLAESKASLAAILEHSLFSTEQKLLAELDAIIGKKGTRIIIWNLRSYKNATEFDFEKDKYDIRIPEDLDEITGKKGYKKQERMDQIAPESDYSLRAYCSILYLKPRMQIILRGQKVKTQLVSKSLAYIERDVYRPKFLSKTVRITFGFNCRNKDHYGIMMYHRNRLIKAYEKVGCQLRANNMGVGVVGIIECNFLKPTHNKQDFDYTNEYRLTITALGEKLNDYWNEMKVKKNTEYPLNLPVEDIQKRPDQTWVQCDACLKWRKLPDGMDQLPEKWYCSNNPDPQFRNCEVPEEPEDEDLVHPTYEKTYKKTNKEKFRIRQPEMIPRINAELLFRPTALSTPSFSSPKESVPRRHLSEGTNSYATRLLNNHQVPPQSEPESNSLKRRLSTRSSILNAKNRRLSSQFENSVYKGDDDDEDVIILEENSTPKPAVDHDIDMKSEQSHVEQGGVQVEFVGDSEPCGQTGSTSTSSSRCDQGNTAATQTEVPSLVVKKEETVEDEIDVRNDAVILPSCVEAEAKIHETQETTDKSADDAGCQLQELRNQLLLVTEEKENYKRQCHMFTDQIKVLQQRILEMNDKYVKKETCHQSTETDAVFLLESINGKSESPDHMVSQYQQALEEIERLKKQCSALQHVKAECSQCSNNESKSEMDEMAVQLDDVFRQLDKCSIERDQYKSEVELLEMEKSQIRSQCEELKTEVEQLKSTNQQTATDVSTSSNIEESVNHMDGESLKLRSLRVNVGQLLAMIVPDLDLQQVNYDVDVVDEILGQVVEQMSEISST
UniProt Q9NV56, whole entry, looked up: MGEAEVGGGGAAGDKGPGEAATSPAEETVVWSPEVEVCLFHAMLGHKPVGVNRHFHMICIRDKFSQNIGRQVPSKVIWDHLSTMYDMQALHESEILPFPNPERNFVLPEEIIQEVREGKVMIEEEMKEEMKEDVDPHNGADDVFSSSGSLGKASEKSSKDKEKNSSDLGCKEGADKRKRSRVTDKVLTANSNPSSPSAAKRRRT
UniProt Q00013: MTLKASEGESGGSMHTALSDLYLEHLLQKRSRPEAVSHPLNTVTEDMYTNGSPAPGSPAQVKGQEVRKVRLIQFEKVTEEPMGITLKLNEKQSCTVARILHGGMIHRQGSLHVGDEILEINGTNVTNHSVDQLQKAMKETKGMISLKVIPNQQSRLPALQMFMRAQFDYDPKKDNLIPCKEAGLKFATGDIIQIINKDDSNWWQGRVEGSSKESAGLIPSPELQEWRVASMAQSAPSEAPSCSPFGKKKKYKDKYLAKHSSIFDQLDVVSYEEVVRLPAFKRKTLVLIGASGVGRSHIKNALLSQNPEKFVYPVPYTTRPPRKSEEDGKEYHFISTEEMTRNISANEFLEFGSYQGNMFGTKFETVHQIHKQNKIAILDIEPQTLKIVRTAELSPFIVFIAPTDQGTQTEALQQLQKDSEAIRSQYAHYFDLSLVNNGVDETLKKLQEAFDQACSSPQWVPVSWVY
UniProt Q8N108: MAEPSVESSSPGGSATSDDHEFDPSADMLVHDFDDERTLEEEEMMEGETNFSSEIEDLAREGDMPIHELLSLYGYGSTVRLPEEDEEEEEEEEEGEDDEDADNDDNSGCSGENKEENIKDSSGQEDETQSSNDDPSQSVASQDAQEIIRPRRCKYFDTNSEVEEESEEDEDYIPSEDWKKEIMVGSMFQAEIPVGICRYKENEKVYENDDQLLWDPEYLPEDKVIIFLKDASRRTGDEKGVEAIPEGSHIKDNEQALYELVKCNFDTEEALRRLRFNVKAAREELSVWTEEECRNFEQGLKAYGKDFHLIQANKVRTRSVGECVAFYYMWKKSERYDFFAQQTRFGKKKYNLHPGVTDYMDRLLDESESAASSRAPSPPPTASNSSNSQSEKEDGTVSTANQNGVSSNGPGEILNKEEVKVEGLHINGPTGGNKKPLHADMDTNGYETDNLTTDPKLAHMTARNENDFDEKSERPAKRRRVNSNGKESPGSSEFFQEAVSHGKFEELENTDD
UniProt O95822: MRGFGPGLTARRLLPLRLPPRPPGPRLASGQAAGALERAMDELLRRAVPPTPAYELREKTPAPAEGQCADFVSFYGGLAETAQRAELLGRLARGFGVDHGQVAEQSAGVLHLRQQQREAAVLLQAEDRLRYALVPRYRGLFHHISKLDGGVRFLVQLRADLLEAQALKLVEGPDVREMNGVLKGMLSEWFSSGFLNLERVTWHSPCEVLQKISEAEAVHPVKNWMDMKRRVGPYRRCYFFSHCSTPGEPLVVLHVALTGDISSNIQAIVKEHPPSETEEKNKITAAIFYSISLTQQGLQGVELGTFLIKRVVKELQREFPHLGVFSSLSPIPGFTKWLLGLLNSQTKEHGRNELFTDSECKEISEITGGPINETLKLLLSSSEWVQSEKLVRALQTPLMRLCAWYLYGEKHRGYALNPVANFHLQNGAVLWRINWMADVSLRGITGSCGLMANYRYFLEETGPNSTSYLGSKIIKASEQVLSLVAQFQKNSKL
UniProt Q9HCE1: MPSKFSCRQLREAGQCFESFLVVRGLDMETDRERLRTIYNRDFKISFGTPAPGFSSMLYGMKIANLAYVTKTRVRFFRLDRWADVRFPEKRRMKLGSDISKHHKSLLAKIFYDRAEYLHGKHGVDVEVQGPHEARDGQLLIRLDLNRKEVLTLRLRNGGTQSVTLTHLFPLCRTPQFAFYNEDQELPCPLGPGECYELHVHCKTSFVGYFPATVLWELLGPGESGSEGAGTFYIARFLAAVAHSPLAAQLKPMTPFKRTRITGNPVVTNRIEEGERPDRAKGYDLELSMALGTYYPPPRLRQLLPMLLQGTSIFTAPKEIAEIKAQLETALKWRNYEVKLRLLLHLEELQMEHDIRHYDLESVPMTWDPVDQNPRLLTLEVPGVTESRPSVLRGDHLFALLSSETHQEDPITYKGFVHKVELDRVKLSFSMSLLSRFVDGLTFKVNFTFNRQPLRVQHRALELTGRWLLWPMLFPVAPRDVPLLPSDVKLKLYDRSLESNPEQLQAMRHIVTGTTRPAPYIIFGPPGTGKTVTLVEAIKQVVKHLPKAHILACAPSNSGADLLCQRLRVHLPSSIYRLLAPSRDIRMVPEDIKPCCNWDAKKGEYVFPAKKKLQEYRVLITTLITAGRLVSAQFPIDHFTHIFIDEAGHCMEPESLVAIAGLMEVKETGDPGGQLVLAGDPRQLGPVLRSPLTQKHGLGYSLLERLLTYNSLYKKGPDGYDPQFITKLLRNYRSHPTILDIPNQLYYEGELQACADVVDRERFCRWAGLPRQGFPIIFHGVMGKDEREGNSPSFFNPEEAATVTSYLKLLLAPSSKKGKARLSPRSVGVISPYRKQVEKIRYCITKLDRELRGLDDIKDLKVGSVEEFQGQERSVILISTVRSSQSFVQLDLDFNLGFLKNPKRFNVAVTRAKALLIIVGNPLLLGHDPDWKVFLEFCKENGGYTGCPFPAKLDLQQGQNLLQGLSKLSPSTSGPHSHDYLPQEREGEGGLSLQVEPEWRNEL
UniProt Q8TAP9: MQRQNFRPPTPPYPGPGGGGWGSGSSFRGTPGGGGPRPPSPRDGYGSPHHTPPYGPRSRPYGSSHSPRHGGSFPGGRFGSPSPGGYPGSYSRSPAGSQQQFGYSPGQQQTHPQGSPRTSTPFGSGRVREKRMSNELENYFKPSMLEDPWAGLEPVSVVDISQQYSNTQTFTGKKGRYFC
UniProt Q9BQP7: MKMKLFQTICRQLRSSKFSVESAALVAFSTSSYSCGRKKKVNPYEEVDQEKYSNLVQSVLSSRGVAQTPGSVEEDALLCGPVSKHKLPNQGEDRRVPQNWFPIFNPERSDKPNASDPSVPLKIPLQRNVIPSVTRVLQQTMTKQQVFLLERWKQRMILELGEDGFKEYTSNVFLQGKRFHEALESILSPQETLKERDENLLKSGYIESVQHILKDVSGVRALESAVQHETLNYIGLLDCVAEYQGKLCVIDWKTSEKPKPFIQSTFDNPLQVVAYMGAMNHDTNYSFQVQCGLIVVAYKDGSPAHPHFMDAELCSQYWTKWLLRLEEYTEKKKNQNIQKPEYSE
UniProt Q8WV92, whole entry, looked up: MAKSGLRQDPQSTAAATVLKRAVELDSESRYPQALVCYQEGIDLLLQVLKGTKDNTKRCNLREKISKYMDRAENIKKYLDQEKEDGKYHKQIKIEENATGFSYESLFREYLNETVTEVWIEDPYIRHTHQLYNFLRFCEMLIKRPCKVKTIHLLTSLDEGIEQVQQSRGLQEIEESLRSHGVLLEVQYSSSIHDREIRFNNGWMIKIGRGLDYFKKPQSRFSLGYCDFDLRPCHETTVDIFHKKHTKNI
UniProt P51948: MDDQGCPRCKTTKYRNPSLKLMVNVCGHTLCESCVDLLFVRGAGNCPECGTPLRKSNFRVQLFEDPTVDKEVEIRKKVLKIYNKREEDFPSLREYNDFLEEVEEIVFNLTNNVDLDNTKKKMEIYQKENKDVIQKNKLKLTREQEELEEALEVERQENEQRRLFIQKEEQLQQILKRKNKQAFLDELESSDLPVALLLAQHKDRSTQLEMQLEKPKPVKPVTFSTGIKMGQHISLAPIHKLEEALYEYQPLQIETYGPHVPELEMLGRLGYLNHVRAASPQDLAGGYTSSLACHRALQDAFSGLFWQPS
UniProt Q7L9L4: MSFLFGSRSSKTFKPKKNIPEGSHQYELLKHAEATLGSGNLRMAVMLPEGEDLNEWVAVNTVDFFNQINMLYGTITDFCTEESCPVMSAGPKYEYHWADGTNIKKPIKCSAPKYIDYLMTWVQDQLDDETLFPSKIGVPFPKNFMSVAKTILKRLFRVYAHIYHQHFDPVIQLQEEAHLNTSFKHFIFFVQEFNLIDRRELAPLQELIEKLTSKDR
UniProt Q9H8M7: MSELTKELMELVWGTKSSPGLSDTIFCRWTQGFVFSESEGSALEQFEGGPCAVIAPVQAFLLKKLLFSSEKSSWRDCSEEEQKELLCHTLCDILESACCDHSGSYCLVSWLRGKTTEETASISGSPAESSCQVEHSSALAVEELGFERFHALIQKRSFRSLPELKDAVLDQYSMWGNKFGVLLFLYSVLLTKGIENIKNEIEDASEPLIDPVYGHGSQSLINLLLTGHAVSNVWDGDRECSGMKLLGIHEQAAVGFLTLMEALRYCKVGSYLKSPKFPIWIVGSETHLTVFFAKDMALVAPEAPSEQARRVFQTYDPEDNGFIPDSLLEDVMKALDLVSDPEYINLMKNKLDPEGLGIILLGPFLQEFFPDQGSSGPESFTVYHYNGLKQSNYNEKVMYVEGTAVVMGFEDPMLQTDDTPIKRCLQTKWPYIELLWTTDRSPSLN
UniProt P14174: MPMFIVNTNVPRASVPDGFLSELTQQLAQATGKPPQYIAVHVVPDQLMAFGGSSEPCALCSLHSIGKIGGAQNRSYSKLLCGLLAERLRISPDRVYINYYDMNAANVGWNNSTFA
UniProt Q7L1V2: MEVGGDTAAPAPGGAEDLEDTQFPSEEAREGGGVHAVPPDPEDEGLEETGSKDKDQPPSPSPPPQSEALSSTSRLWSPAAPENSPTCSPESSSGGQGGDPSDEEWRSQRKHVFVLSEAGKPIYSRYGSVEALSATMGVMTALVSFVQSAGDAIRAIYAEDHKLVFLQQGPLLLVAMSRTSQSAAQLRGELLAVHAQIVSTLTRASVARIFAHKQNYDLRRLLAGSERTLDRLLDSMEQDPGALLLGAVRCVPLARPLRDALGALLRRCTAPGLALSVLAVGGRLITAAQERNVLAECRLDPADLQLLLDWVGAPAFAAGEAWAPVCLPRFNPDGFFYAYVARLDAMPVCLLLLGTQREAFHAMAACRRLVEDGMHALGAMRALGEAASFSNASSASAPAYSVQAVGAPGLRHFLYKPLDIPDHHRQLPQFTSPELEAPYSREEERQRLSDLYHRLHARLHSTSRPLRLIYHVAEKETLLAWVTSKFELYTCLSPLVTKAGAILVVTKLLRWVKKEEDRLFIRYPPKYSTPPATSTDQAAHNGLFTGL
UniProt Q5TGZ0: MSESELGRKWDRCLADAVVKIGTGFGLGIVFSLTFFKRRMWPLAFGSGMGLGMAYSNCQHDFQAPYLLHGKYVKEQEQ

Tests used:
Assay in all cases: log2 fold change, soluble protein after heating vs DMSO (PISA); higher = thermal stabilisation; K562 lysate, 10 uM; active = over 0.2 and 3.5 SD of the protein, either way, in both replicates (recomputed)
lapatinib = compound: CS(=O)(=O)CCNCc1ccc(-c2ccc3ncnc(Nc4ccc(OCc5cccc(F)c5)c(Cl)c4)c3c2)o1 [lapatinib]
How it was run: (§1)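 Values give the log-two fold change in thermal stability against solvent controls, from duplicates. Crude K562 extract at 1 mg/mL protein, made by dounce homogenisation in PBS pH 7.4 with 1 mM MgCl2, was treated with 10 μM compound for 30 min. After 3 min heating across 48°C-58°C, aliquots were pooled, adjusted to 0.5% NP-40 at 4°C and centrifuged at 21,000xg for 90 min. The supernatant was measured by TMTpro 16plex LC-MS/MS with channel sums equalised.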

pictilisib = compound: CS(=O)(=O)N1CCN(Cc2cc3nc(-c4cccc5[nH]ncc45)nc(N4CCOCC4)c3s2)CC1 [pictilisib]
How it was run: as §1

crizotinib = compound: C[C@@H](Oc1cc(-c2cnn(C3CCNCC3)c2)cnc1N)c1c(Cl)ccc(F)c1Cl [crizotinib]
How it was run: as §1

[1] = compound: C[C@H](C1=CC=C(C=C1)C(=O)NC2=C3C=CNC3=NC=C2)N
How it was run: as §1

duvelisib = compound: C[C@H](Nc1ncnc2nc[nH]c12)c1cc2cccc(Cl)c2c(=O)n1-c1ccccc1 [duvelisib]
How it was run: as §1

gandotinib = compound: Cc1cc(Nc2cc(CN3CCOCC3)c3nc(C)c(Cc4ccc(Cl)cc4F)n3n2)n[nH]1 [gandotinib]
How it was run: as §1

tozasertib = compound: Cc1cc(Nc2cc(N3CCN(C)CC3)nc(Sc3ccc(NC(=O)C4CC4)cc3)n2)n[nH]1 [tozasertib]
How it was run: as §1

doramapimod = compound: Cc1ccc(-n2nc(C(C)(C)C)cc2NC(=O)Nc2ccc(OCCN3CCOCC3)c3ccccc23)cc1 [doramapimod]
How it was run: as §1

bafetinib = compound: Cc1ccc(NC(=O)c2ccc(CN3CC[C@H](N(C)C)C3)c(C(F)(F)F)c2)cc1Nc1nccc(-c2cncnc2)n1 [bafetinib]
How it was run: as §1

[2] = compound: Cc1cccc(CC(=O)N2CCc3c2ccc(-c2cn(C)c4ncnc(N)c24)c3F)n1
How it was run: as §1

Measured: log2 fold change

MPP6 (UniProt Q9NZW5)
inactive: lapatinib 0.007 | pictilisib -0.041 | crizotinib -0.08 | [1] -0.002 | duvelisib 0.011 | gandotinib -0.02 | tozasertib 0.043 | doramapimod -0.005 | bafetinib -0.032 | [2] 0.008

MOB2 isoform 3 (UniProt Q70IA6)
inactive: lapatinib 0.025 | pictilisib 0.06 | crizotinib -0.019 | [1] 0.055 | duvelisib -0.024 | gandotinib -0.127 | tozasertib -0.009 | doramapimod 0.013 | bafetinib 0.047 | [2] -0.019

MRPL19 (UniProt P49406)
inactive: lapatinib -0.026 | pictilisib -0.024 | crizotinib -0.071 | [1] -0.094 | duvelisib -0.026 | gandotinib 0.029 | tozasertib 0.014 | doramapimod 0.011 | bafetinib -0.048 | [2] 0.051

MRPL20 (UniProt Q9BYC9)
inactive: lapatinib 0.147 | pictilisib 0.018 | crizotinib -0.025 | [1] -0.025 | duvelisib 0.027 | gandotinib 0.032 | tozasertib 0.019 | doramapimod 0.027 | bafetinib -0.07 | [2] 0.076

MORC3 (UniProt Q14149)
inactive: lapatinib 0.021 | pictilisib -0.037 | crizotinib -0.02 | [1] 0.005 | duvelisib -0.001 | gandotinib -0.053 | tozasertib 0.001 | doramapimod 0.024 | bafetinib -0.001 | [2] 0.014

MRGBP (UniProt Q9NV56)
inactive: lapatinib -0.042 | pictilisib 0.026 | crizotinib 0.062 | [1] -0.05 | duvelisib 0.022 | gandotinib 0.024 | tozasertib -0.143 | doramapimod -0.034 | bafetinib -0.036 | [2] 0.048

MPP1 (UniProt Q00013)
inactive: lapatinib 0.006 | pictilisib 0.016 | crizotinib 0.001 | [1] -0.006 | duvelisib 0.012 | gandotinib -0.008 | tozasertib 0.017 | doramapimod 0.006 | bafetinib -0.015 | [2] 0.001

MGAT4B isoform 3 (UniProt Q9UQ53)
inactive: lapatinib -0.046 | pictilisib -0.115 | crizotinib 0.068 | [1] -0.083 | duvelisib -0.024 | gandotinib 0.019 | tozasertib 0.041 | doramapimod -0.027 | bafetinib -0.107 | [2] 0.063

MRE11 (UniProt F8W7U8)
inactive: lapatinib -0.04

MIER1 isoform 12 (UniProt Q8N108)
inactive: lapatinib 0.019 | pictilisib 0.019 | crizotinib 0.006 | [1] -0.009 | duvelisib 0.027 | gandotinib 0.009 | tozasertib 0.001 | doramapimod -0.002 | bafetinib -0.013 | [2] 0.004

MLYCD (UniProt O95822)
inactive: lapatinib -0.039 | pictilisib 0.006 | crizotinib 0.006 | [1] 0.043 | duvelisib 0.019 | gandotinib -0.012 | tozasertib 0.06 | doramapimod 0.016 | bafetinib -0.022 | [2] -0.038

MOV10 (UniProt Q9HCE1)
inactive: lapatinib -0.01 | pictilisib -0.011 | crizotinib -0.012 | [1] -0.005 | duvelisib 0.001 | gandotinib 0.005 | tozasertib -0.03 | doramapimod 0.006 | bafetinib -0.033 | [2] 0.009

MPLKIP (UniProt Q8TAP9)
inactive: lapatinib -0.011 | pictilisib 0.083 | crizotinib -0.015 | [1] -0.161 | duvelisib 0.074 | gandotinib 0.144 | tozasertib -0.02 | doramapimod 0.046 | bafetinib 0.009 | [2] 0.096

MOSPD2 (UniProt Q8NHP6)
inactive: lapatinib 0.01 | pictilisib -0.036 | crizotinib -0.041 | [1] -0.076 | duvelisib -0.02 | gandotinib 0.003 | tozasertib 0.021 | doramapimod 0.022 | bafetinib -0.009 | [2] 0.1

MRPL21 (UniProt Q7Z2W9)
inactive: lapatinib 0.039 | pictilisib 0 | crizotinib -0.05 | [1] -0.08 | duvelisib 0 | gandotinib 0.008 | tozasertib -0.057 | doramapimod 0.06 | bafetinib -0.033 | [2] 0.049

MINK1 (UniProt Q8N4C8)
inactive: lapatinib -0.084 | pictilisib -0.02 | crizotinib -0.149 | [1] 0.271 | duvelisib 0.026 | gandotinib -0.102 | tozasertib 0.014 | doramapimod 0.24 | bafetinib -0.158 | [2] 0.249

MGME1 (UniProt Q9BQP7)
inactive: lapatinib 0.002 | pictilisib -0.01 | crizotinib -0.005 | [1] 0.005 | duvelisib 0.016 | gandotinib 0.014 | tozasertib 0.01 | doramapimod -0.017 | bafetinib 0.006 | [2] -0.022

MITD1 (UniProt Q8WV92)
inactive: lapatinib 0.003 | pictilisib -0.032 | crizotinib 0.046 | [1] 0.086 | duvelisib 0.055 | gandotinib 0.025 | tozasertib -0.015 | doramapimod -0.049 | bafetinib -0.118 | [2] -0.085

MRPL15 (UniProt Q9P015)
active: [1] -0.421
inactive: lapatinib -0.021 | pictilisib 0.036 | crizotinib -0.045 | duvelisib -0.013 | gandotinib 0.134 | tozasertib 0 | doramapimod 0.079 | bafetinib -0.063 | [2] 0.241

MNAT1 (UniProt P51948)
inactive: lapatinib 0.011 | pictilisib -0.028 | crizotinib -0.043 | [1] -0.023 | duvelisib -0.001 | gandotinib 0.042 | tozasertib -0.019 | doramapimod 0.026 | bafetinib -0.032 | [2] 0.034

MGA (UniProt Q8IWI9)
inactive: lapatinib -0.096 | pictilisib 0.017 | crizotinib -0.053 | [1] -0.066 | duvelisib 0.057 | gandotinib 0.042 | tozasertib -0.038 | doramapimod 0.03 | bafetinib -0.318 | [2] -0.002

MOB1B isoform 2 (UniProt Q7L9L4)
inactive: lapatinib -0.024 | pictilisib 0.066 | crizotinib 0.021 | [1] -0.101 | duvelisib 0.008 | gandotinib 0.085 | tozasertib 0.014 | doramapimod 0.006 | bafetinib -0.027 | [2] 0.057

Random excerpt: two records from the list.
MOB1B isoform 2 (UniProt Q7L9L4)
inactive: lapatinib -0.024 | pictilisib 0.066 | crizotinib 0.021 | [1] -0.101 | duvelisib 0.008 | gandotinib 0.085 | tozasertib 0.014 | doramapimod 0.006 | bafetinib -0.027 | [2] 0.057

MPLKIP (UniProt Q8TAP9)
inactive: lapatinib -0.011 | pictilisib 0.083 | crizotinib -0.015 | [1] -0.161 | duvelisib 0.074 | gandotinib 0.144 | tozasertib -0.02 | doramapimod 0.046 | bafetinib 0.009 | [2] 0.096

The list continues.

MINDY3 (UniProt Q9H8M7)
inactive: lapatinib -0.004 | pictilisib -0.028 | crizotinib 0.041 | [1] -0.08 | duvelisib 0 | gandotinib 0.034 | tozasertib 0.045 | doramapimod -0.003 | bafetinib -0.025 | [2] 0.008

MIF (UniProt P14174)
inactive: lapatinib 0.04 | pictilisib 0.06 | crizotinib -0.022 | duvelisib 0.022 | gandotinib 0.11 | tozasertib -0.057 | doramapimod 0.008 | bafetinib 0.383 | [2] 0.024
active: [1] -0.258

MRPL11 (UniProt Q9Y3B7)
inactive: lapatinib -0.018 | pictilisib -0.012 | crizotinib -0.029 | [1] 0.005 | duvelisib 0.036 | gandotinib 0.013 | tozasertib 0.004 | doramapimod 0.014 | bafetinib -0.083 | [2] -0.018

MON1B (UniProt Q7L1V2)
inactive: lapatinib -0.017 | pictilisib -0.041 | crizotinib 0.004 | [1] -0.079 | duvelisib 0.034 | gandotinib 0.023 | tozasertib -0.031 | doramapimod -0.003 | bafetinib -0.054 | [2] 0.069

MKLN1 (UniProt Q9UL63)
inactive: lapatinib 0.01 | pictilisib 0.003 | crizotinib -0.031 | [1] 0.01 | duvelisib -0.012 | gandotinib 0.02 | tozasertib -0.016 | doramapimod -0.017 | bafetinib 0.031 | [2] -0.022

MORC2 (UniProt Q9Y6X9)
inactive: lapatinib 0.016 | pictilisib 0.015 | crizotinib -0.012 | [1] -0.049 | duvelisib 0.04 | gandotinib -0.032 | tozasertib 0.008 | doramapimod 0.012 | bafetinib -0.032 | [2] 0.043

MRPL17 (UniProt Q9NRX2)
inactive: lapatinib 0.016 | pictilisib -0.022 | crizotinib -0.011 | [1] 0.001 | duvelisib -0.02 | gandotinib -0.039 | tozasertib 0.05 | doramapimod 0.041 | bafetinib 0.018 | [2] -0.013

MICOS10 (UniProt Q5TGZ0)
inactive: lapatinib 0.032 | pictilisib 0.014 | crizotinib 0.005 | [1] -0.049 | duvelisib 0.108 | gandotinib 0 | tozasertib 0.055 | doramapimod -0.024 | bafetinib 0.12 | [2] 0.059
